Our source for the binding values is article PMC6193740.

Sequences of proteins named here, by UniProt entry; tags and fusion partners are left off.
UniProt P48754: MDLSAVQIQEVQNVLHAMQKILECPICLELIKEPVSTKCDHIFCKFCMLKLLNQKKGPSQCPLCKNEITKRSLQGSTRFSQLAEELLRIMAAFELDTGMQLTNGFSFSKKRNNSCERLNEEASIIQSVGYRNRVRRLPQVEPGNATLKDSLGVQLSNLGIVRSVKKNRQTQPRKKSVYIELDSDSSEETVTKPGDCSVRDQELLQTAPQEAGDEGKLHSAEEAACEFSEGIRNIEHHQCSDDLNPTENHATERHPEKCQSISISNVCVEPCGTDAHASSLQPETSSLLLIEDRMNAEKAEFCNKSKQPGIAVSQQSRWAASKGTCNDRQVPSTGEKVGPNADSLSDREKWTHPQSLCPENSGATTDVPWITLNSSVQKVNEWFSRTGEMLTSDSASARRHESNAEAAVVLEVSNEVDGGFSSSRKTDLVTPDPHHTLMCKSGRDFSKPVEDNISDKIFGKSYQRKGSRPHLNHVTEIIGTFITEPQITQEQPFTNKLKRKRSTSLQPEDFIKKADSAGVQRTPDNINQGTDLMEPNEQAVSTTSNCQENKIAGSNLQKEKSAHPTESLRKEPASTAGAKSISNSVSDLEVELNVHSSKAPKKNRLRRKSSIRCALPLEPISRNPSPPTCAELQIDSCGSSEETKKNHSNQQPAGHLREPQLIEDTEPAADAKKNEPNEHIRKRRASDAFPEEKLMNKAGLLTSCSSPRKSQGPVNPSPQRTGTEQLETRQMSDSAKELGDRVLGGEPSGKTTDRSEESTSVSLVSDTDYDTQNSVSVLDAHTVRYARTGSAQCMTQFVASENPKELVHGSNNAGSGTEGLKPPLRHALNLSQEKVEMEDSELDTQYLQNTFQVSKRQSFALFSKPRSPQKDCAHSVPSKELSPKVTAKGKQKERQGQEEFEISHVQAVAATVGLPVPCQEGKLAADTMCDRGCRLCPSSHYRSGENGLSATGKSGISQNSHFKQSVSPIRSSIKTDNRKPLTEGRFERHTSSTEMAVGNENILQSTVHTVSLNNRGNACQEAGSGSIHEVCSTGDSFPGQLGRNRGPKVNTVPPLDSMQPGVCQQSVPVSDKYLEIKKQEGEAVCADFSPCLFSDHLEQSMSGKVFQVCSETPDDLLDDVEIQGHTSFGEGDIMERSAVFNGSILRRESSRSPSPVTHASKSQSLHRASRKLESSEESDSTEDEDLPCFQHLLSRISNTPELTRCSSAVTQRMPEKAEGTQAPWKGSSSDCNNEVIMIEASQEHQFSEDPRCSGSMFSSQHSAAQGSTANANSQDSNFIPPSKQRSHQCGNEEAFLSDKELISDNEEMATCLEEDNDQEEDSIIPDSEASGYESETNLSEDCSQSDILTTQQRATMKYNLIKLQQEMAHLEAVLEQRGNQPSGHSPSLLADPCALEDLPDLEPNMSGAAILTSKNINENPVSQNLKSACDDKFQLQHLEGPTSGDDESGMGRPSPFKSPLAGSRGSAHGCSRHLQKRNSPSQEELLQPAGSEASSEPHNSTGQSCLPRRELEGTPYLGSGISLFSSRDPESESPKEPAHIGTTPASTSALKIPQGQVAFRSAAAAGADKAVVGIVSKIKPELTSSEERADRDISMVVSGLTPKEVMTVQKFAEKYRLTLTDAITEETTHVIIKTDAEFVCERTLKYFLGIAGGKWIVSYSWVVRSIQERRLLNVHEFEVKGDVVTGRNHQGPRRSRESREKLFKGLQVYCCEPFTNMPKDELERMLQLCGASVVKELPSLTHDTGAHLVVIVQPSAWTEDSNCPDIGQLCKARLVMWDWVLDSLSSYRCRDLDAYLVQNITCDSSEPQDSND

Results are given in words; binding and its absence hold for the method and conditions named. In cells and extracts the contact can be indirect. Some results given as binding are weak or reduced against the parent protein; the word gives no strength. For some of these results: Sequences can lack the tags named with a protein.

Assay [1] concerns the target T1, Flag-Cep112 (UniProt Q5PR68).
T1 sequence: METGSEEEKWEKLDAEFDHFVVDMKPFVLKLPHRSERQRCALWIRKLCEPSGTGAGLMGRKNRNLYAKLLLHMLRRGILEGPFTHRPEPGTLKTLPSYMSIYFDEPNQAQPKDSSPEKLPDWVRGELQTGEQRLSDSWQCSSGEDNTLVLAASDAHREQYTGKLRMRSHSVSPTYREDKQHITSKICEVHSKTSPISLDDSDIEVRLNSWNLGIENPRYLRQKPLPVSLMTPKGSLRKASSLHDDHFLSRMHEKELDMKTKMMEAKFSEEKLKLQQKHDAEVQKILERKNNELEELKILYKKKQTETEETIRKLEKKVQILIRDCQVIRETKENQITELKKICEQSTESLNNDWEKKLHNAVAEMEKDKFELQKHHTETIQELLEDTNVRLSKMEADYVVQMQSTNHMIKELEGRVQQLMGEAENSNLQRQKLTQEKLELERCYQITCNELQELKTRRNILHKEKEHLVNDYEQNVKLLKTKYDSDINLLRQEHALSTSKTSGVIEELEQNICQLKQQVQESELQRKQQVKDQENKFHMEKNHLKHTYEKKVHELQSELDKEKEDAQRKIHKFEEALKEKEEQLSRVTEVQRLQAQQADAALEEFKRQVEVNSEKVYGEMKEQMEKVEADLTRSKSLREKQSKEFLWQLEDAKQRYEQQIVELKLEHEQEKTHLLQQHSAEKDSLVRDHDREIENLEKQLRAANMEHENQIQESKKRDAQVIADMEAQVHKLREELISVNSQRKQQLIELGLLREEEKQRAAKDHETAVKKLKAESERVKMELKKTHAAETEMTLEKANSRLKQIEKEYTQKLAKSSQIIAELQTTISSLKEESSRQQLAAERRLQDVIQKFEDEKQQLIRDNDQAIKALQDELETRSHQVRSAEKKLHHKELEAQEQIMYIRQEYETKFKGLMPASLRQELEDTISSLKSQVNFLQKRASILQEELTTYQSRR
The assay is described as follows: co-IP; lysate of NIH/3T3 cells stably expressing Flag-Cep112; IP with Flag antibody and blot for Brca1, and IP with Brca1 antibody and blot with Flag antibody; anti-IgG IP as control.

Assay [2] has as its target T2, centrosomal protein 112 (Cep112) (mouse (endogenous in NIH/3T3)) (UniProt Q5PR68).
T2 sequence: T1 sequence
The assay can be described thus: co-IP; endogenous proteins in NIH/3T3-EV lysate (IP lysis buffer, Pierce); antibodies cross-linked to protein-A Dynabeads, incubated with lysate at 4 °C for 2 hours; IP with Brca1 antibody and blot for Cep112, and vice versa; anti-IgG IP as control; also NIHGinir-shGinir knock-down cells (interaction restored).

Assay [3] addresses breast cancer type 1 susceptibility protein (Brca1) (mouse (endogenous in NIH/3T3)) (UniProt P48754). The assay is described as follows: co-IP; lysates of NIH/3T3-Ginir cells (clones A, B, C) treated with RNasin (200 U/ml) before IP with Brca1 antibody; blot for Cep112.
Assay [4] has the same target. The assay can be described thus: co-IP; endogenous proteins in NIH/3T3-EV lysate (IP lysis buffer, Pierce); antibodies cross-linked to protein-A Dynabeads, incubated with lysate at 4 °C for 2 hours; IP with Brca1 antibody and blot for Cep112, and vice versa; anti-IgG IP as control; also NIHGinir-shGinir knock-down cells (interaction restored).
Assay [5] shares this target. The assay is described as follows: co-IP; lysates of NIH/3T3-Ginir cells (clones A, B, C) treated with RNase A, RNase III and RNase H at 37 °C for 1 hour before IP with Brca1 antibody; blot for Cep112.
Assay [6] shares this target. The assay is described as follows: co-IP; lysate of NIH/3T3-Ginir(A) cells (stable overexpression of Ginir RNA); IP with Brca1 antibody, blot for Cep112; anti-IgG IP as control.
The target is the same in assay [7]. The assay is described as follows: co-IP; lysate of NIH/3T3 cells stably expressing Flag-Cep112; IP with Flag antibody and blot for Brca1, and IP with Brca1 antibody and blot with Flag antibody; anti-IgG IP as control.

“breast cancer type 1 susceptibility protein (Brca1) (from UniProt P48754 1-1812)”: the binding entry in assay [1] and in assay [2] was “binds” each time.

B1: centrosomal protein 112 (Cep112) (protein, UniProt Q5PR68 1-954)
chain: T1 sequence
For B1, the binding entry is given as “binds weakly” in assay [3], “binds” in assay [4], “binds” in assay [5] and “binds weakly” in assay [6].

B2: Flag-Cep112 (protein, UniProt Q5PR68 1-954)
chain: T1 sequence
On to B2, for which the binding result in assay [7] is on record as “binds”.
